Laboratory results reported in publication PMC4507941 (PLoS ONE, 2015).
Results are given in words; binding and its absence hold for the method and conditions named.

Target: T1, rat islet amyloid polypeptide (rat), P12969
T1 chain: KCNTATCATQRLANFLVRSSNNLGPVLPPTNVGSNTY
Test: SDS-PAGE and Western blot of oligomers; peptide incubated at 37°C for 1 hr with gentle shaking; Western blot with rabbit anti-oligomer antibody A11 and rabbit anti-IAPP; rIAPP 20 uM as negative control; both purified
Conditions: remark: other sources report otherwise

## KCNTATCATQRLANFLVRSSNNLGPVLPPTNVGSNTY [rat islet amyloid polypeptide, P12969 38-74]
  binding: no binding (tested: 20 μM)
